These are yes or no findings as the source states them, for the method shown. Binding seen in cells or lysates may run through a third protein. Some binding calls cover weakened binding; strength is not graded here.

By UniProt entry, the sequences of proteins in these tests, tags left out.
UniProt P12813: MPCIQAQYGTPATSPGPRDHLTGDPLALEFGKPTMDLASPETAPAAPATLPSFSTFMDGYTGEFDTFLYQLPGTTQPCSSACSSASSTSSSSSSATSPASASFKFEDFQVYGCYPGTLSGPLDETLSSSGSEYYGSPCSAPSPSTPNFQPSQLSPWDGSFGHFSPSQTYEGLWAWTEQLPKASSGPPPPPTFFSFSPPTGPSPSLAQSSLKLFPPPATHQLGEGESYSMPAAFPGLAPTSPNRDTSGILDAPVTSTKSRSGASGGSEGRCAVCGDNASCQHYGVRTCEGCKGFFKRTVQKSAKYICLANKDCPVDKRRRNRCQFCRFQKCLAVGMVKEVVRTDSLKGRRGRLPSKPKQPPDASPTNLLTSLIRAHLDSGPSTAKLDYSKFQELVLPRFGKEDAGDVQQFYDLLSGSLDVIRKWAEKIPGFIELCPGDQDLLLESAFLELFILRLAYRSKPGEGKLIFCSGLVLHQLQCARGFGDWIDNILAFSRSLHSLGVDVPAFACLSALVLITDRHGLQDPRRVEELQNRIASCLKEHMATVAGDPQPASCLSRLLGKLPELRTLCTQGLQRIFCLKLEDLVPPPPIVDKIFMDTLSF

Assay [1] concerns the target T1, Tumor necrosis factor receptor-associated factor 6 (mouse (endogenous in MODE-K)) (UniProt P70196).
T1 sequence: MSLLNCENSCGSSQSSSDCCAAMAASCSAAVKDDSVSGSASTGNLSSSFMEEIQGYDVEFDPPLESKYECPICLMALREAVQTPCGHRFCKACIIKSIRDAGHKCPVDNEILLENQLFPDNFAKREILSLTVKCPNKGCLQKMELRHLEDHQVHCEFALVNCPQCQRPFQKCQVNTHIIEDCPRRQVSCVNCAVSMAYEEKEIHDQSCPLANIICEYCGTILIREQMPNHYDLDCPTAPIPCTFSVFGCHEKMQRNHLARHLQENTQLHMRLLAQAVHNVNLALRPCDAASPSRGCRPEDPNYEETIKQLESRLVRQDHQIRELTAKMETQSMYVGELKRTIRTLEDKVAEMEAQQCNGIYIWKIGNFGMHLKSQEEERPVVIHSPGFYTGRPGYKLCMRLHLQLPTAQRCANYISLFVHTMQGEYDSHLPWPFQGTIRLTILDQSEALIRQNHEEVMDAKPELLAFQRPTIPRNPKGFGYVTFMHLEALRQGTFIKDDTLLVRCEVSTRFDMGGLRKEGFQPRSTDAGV
As to the kind of experiment: co-IP; endogenous TRAF6 immunoprecipitated from MODE-K lysate (IP buffer, protein A/G beads), immunoblot for Nur77; cells treated with GPA. A general note: A western blot detects proteins with antibodies after separation by electrophoresis.

Assay [2] addresses Nur77 (mouse (endogenous in MODE-K)) (UniProt P12813). As to the kind of experiment: co-IP; endogenous Nur77 immunoprecipitated from MODE-K lysate (IP buffer, protein A/G beads), immunoblot for TRAF6 and p62; cells treated with GPA (1 mM, 6 h) and/or LPS (1 ug/ml, 3 h).

For Nur77 (from UniProt P12813 1-601), the binding result in assay [1] is reported as “binds”.

B1: Tumor necrosis factor receptor-associated factor 6 (protein, UniProt P70196 1-530)
chain: MSLLNCENSCGSSQSSSDCCAAMAASCSAAVKDDSVSGSASTGNLSSSFMEEIQGYDVEFDPPLESKYECPICLMALREAVQTPCGHRFCKACIIKSIRDAGHKCPVDNEILLENQLFPDNFAKREILSLTVKCPNKGCLQKMELRHLEDHQVHCEFALVNCPQCQRPFQKCQVNTHIIEDCPRRQVSCVNCAVSMAYEEKEIHDQSCPLANIICEYCGTILIREQMPNHYDLDCPTAPIPCTFSVFGCHEKMQRNHLARHLQENTQLHMRLLAQAVHNVNLALRPCDAASPSRGCRPEDPNYEETIKQLESRLVRQDHQIRELTAKMETQSMYVGELKRTIRTLEDKVAEMEAQQCNGIYIWKIGNFGMHLKSQEEERPVVIHSPGFYTGRPGYKLCMRLHLQLPTAQRCANYISLFVHTMQGEYDSHLPWPFQGTIRLTILDQSEALIRQNHEEVMDAKPELLAFQRPTIPRNPKGFGYVTFMHLEALRQGTFIKDDTLLVRCEVSTRFDMGGLRKEGFQPRSTDAGV
In the case of B1, in assay [2], the binding entry was “binds”.
